Experimental data published in patent US20220017616A1.

Experiments:
human CD112R (human) [1] = test: flow cytometry, titration on activated primary human T cells
[2] = molecular target: cynomolgus monkey CD112R (cynomolgus monkey); test: flow cytometry, recombinant cyno CD112R transiently expressed on HEK293T cells
human CD112R (human) [3] = test: flow cytometry, human CD112R transiently expressed on 293T cells
[4] = molecular target: cynomolgus monkey CD112R (cynomolgus monkey); test: flow cytometry on primary cyno T-cells
[5] = molecular target: cynomolgus monkey CD112R (cynomolgus monkey); test: flow cytometry, titration on activated cyno PBMCs

binding (human CD112R (human) [1]): binds | binding [2]: binds | binding (human CD112R (human) [3]): binds | binding [4]: binds | binding [5]: binds
B1: 1E1 (antibody, V domains shown)
VH: QVQLVQSGAEVKKPGASVKVSCQASGYTFTDYYIYWVRQAPGQGLEWMGWINPNSGGTNYAQKFQGRVTMTRDTSISTAYIELSRLRSDDTAVYYCAREDNFNGMDVWGQGTTVTVSS
VL: DIQMTQSPSSLSASVGDRVTITCRASQGIRNDLGWYQQKPGKAPKRLIYAASSLQSGVPSRFSGSGSGTEFTLTISSLQPEDFATYYCLQLNSYPLTFGGGTKVEIKR

Results are given in words; binding and its absence hold for the method and conditions named. Binding calls can cover weak binding; strength is not graded here.
